Reference: article PMC7819943, “Rice protein-binding microarrays: a tool to detect cis-acting elements near promoter regions in rice”
This is one part of the list.

molecular target: T1, OsSMF1 (Oryza sativa, UniProt Q6ZLB0 1-436); assay: protein-binding microarray (RPBM); PBS, 2% BSA, 51.3 ng/ul salmon testes DNA, 50 uM zinc acetate, 200 nM TF, 25 C, 1 h; high values mean tight binding; settings: protein: recombinant; tags: N-terminal polyhistidine and DsRed monomer fusion (pET32a); chain copies: 2; label: CyDye5-dUTP incorporated in the synthesized complementary strand; 3' TTTTT single-stranded linker to array surface; dsDNA, one strand shown
T1 sequence: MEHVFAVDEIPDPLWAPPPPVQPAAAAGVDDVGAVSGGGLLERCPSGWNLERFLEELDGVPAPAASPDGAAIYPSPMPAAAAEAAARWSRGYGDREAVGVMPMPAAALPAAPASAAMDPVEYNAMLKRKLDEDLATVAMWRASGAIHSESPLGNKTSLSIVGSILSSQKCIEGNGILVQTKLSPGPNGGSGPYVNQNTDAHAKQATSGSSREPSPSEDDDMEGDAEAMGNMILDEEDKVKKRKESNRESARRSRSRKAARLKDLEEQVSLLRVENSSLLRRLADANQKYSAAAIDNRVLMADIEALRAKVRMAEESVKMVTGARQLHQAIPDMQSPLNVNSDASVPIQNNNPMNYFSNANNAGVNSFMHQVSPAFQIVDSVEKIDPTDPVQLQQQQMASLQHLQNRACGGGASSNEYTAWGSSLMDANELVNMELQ
Outline: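 The binding signal for each feature is its fluorescence intensity in arbitrary units. An Axon 4000B scanner was used to read a custom Agilent array that had been made double-stranded with Cy5-dUTP primer extension, blocked with 2% BSA, incubated at 25 °C for 1 h with 200 nM protein in PBS, 2% BSA, salmon testes DNA and 50 µM zinc acetate, and washed. The protein was an N-terminal polyhistidine–DsRed transcription factor fusion from E. coli BL21-CodonPlus, purified on Ni–NTA.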

| Sequence | binding signal |
| --- | --- |
| TCAAAAGGAATGTTTCTATAGTGTACCCATCCAGATTTTACGGAGTCACCTAGTGCAG | 4430 fluorescence intensity (a.u.) |
| TTAATTTTAGAAATATATGTATAACTACTAAATTAGTTAACGGAGTCACCTAGTGCAG | 23800 fluorescence intensity (a.u.) |
| CCCACTGTATCCACTACCATCTCCCGTGTCCTCCTCCCACCGGAGTCACCTAGTGCAG | 3480 fluorescence intensity (a.u.) |
| GCGTCGTCGGGATCGTGTACTCGTCGTAGCCACCACACCGCGGAGTCACCTAGTGCAG | 4580 fluorescence intensity (a.u.) |
| GTGCCATTTTAGGGTGTTGATGTGGATCAACAAGAGATGACGGAGTCACCTAGTGCAG | 3260 fluorescence intensity (a.u.) |
| CAAGCTAACCACGCATGGCCCACCTGTCATTCTGAGACAGCGGAGTCACCTAGTGCAG | 3950 fluorescence intensity (a.u.) |
| TCTCCTCTCCGACACGACAGCGACTTCTCCCTCCCGCCACCGGAGTCACCTAGTGCAG | 5440 fluorescence intensity (a.u.) |
| TTCGCGTCCTCCGTGTCGAGCAGGTCCTCCACATTAGAGGCGGAGTCACCTAGTGCAG | 3410 fluorescence intensity (a.u.) |
| TTGCAATTGATCTAGCCGCTGAGGAGGACGGTAAAGTAGACGGAGTCACCTAGTGCAG | 14700 fluorescence intensity (a.u.) |
| CGGCAAGACGGCGGCGCGTGGCGGCGGCGAGACCCATCGACGGAGTCACCTAGTGCAG | 3190 fluorescence intensity (a.u.) |
| CTCGGATGAAGAACCTATGAGATGTCATAATATGGTTTTCCGGAGTCACCTAGTGCAG | 4110 fluorescence intensity (a.u.) |
| CGAGGGATTCGAGTGACGACACGCGCGCAGGGGTACGTGGCGGAGTCACCTAGTGCAG | 7480 fluorescence intensity (a.u.) |
| CTCAACTGTGCTGACATAAAACAACTCATCACATTTTAGGCGGAGTCACCTAGTGCAG | 4100 fluorescence intensity (a.u.) |
| GGTCGGTCCAGCTATAACCTGTGTCATCTTACACACCAGACGGAGTCACCTAGTGCAG | 3590 fluorescence intensity (a.u.) |
| CTCCTAGCAGCAACAGGGCCACGTTTGCTCTGCGAACAGGCGGAGTCACCTAGTGCAG | 4590 fluorescence intensity (a.u.) |
| AGCTTTTAGCCGAGGTGGATGCATAGGCCATGGCACCCTACGGAGTCACCTAGTGCAG | 3510 fluorescence intensity (a.u.) |
| AGTGCTTTACTCTGCTGATTCATTGTTAAAATTGCCCCTACGGAGTCACCTAGTGCAG | 4980 fluorescence intensity (a.u.) |
| TCTCAACACGTACCCTCTCCTCCATCCGACGGTGGAGACGCGGAGTCACCTAGTGCAG | 4400 fluorescence intensity (a.u.) |
| TTTAATTCAAATGCCACCTAAGCACCACGTCAGCGAAACCCGGAGTCACCTAGTGCAG | 42600 fluorescence intensity (a.u.) |
| GGACACGACGACGCAACGGGGTCGCATCTCCCTGATTTGGCGGAGTCACCTAGTGCAG | 4350 fluorescence intensity (a.u.) |
| CCAACAGTAATTAAATGCAGATAAACAGAGATGAAATGGACGGAGTCACCTAGTGCAG | 31500 fluorescence intensity (a.u.) |

| Sequence | binding signal |
| --- | --- |
| GCCCGTGTGCCGCCACACGTGGCCCGTATGCGACAAGCCCCGGAGTCACCTAGTGCAG | 5750 fluorescence intensity (a.u.) |
| ATGCCTCCGTTGGGAGAGATGCCAACACGACACACCAGCTCGGAGTCACCTAGTGCAG | 25800 fluorescence intensity (a.u.) |
| TTAAAGACTCGTCGTAGGTTGGTTGTATCATACAACTTCGCGGAGTCACCTAGTGCAG | 3160 fluorescence intensity (a.u.) |
| TTTTACCAAGTCAGCTGGGACAGGAATTGGCATTGAGTTCCGGAGTCACCTAGTGCAG | 12900 fluorescence intensity (a.u.) |
| ACGCCAAGTCATGTCATGCATGTACACTTCGTGCATGAATCGGAGTCACCTAGTGCAG | 5170 fluorescence intensity (a.u.) |
| TGTATATCGTATATCCGATGTGACACGCCAAAACTTTACACGGAGTCACCTAGTGCAG | 3150 fluorescence intensity (a.u.) |
| AAGGGAAGACTTCAACCCGGCCGCGGTTGGTGGCGCCATCCGGAGTCACCTAGTGCAG | 3180 fluorescence intensity (a.u.) |
| AAATTATGGTGTCACACTGGGCTGTCGTGTGGGCTAGATTCGGAGTCACCTAGTGCAG | 3820 fluorescence intensity (a.u.) |
| ACTGACCAGCCAACTGGGTTCATGGTTTGTTTGAAACATGCGGAGTCACCTAGTGCAG | 3170 fluorescence intensity (a.u.) |
| AAAGAAGCTAAGAGAGATCAAGTGATGTGGTCGTCGCCGTCGGAGTCACCTAGTGCAG | 4320 fluorescence intensity (a.u.) |
| CGACCTCGCTTGGCCGCATCCACCGACTTTCCACGCTCGCCGGAGTCACCTAGTGCAG | 3650 fluorescence intensity (a.u.) |
| ATGTACCGTTCACACCTATTTTATCACGTGTCCTTGTGCCCGGAGTCACCTAGTGCAG | 4390 fluorescence intensity (a.u.) |
| ACCAATAAATTCGACATAGCTGATACATTTTCAGATGCAACGGAGTCACCTAGTGCAG | 3590 fluorescence intensity (a.u.) |
| GGAAGGTGCTCAGGCAAATTGCTCGTGACAGGGAAGCAGCCGGAGTCACCTAGTGCAG | 3540 fluorescence intensity (a.u.) |
| CGTGTCCAGCCGACAGTATAGCTGAGCTGGCAGTCCGTTCCGGAGTCACCTAGTGCAG | 14100 fluorescence intensity (a.u.) |
| TGTTTCTACCTGTTTTGTAGGGATGTGATGCGTCAGTTTTCGGAGTCACCTAGTGCAG | 4620 fluorescence intensity (a.u.) |
| AGCTGAGTCAGTGTGAGACCCACGTGTCAGAATGCCACTTCGGAGTCACCTAGTGCAG | 12200 fluorescence intensity (a.u.) |
| GCTTGCTGCTGCTGCTGCTGATAGTTTAGCTTGAGAGAGCCGGAGTCACCTAGTGCAG | 22700 fluorescence intensity (a.u.) |
| TGCAGTTCCTCACCAAAACGCCATCCCCATCCTCCCTGCCCGGAGTCACCTAGTGCAG | 3680 fluorescence intensity (a.u.) |
| TGCTTGGTAAGGGTGAGGAAATAATGGCGTGACGAAAAGACGGAGTCACCTAGTGCAG | 3610 fluorescence intensity (a.u.) |
| TTAATTAGCATCAGCACCATCTAGCCATGTATGCAAACCCCGGAGTCACCTAGTGCAG | 4080 fluorescence intensity (a.u.) |

Look-ups from the list:
AAATTATGGTGTCACACTGGGCTGTCGTGTGGGCTAGATTCGGAGTCACCTAGTGCAG – binding signal: 3820 fluorescence intensity (a.u.)
ATGTACCGTTCACACCTATTTTATCACGTGTCCTTGTGCCCGGAGTCACCTAGTGCAG – binding signal: 4390 fluorescence intensity (a.u.)
